Reference: PMC11006888
Results are given in words; binding and its absence hold for the method and conditions named. A result given as binding can be weak or reduced; the word gives no strength. For some of these results: Binding seen in cells or lysates may run through a third protein. For some of these results: Sequences can lack the tags named with a protein.

Assays:
[1] = biological target: T1, PAM68 (Photosynthesis Affected Mutant68) (Arabidopsis thaliana (endogenous in thylakoids)) (UniProt O49668); assay: co-IP; wild-type thylakoids solubilised with 1% dodecyl-β-D-maltoside in co-IP buffer (50 mM Tris-HCl pH 8.0, 100 mM NaCl, 1 mM EDTA, 0.1% Igepal CA-630), incubated overnight at 4 °C with FPB1, PAM68 or YCF4 antibody or preimmune serum coupled to CNBr-activated agarose; immunoblot
T1 sequence: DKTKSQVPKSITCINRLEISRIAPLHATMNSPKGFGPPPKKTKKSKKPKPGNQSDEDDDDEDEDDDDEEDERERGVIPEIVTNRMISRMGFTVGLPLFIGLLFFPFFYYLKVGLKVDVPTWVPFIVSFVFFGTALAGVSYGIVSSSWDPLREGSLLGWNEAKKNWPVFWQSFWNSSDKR

[2] = biological target: T1, PAM68 (Photosynthesis Affected Mutant68) (Arabidopsis thaliana (endogenous in thylakoids)); assay: cross-linking + co-IP; thylakoids crosslinked with 1.5 mM DSP for 2 h on ice, solubilised in RIPA buffer (1% Triton X-100, 1% sodium deoxycholate, 0.1% SDS), immunoprecipitated with antibodies coupled to CNBr-activated agarose; cross-links opened with β-mercaptoethanol; immunoblot
[3] = biological target: T2, PAM68-YFP^N (Arabidopsis thaliana) (UniProt O49668); assay: split reporter; BiFC with YFP^N and YFP^C fusions cotransformed into Arabidopsis protoplasts; confocal microscopy
T2 sequence: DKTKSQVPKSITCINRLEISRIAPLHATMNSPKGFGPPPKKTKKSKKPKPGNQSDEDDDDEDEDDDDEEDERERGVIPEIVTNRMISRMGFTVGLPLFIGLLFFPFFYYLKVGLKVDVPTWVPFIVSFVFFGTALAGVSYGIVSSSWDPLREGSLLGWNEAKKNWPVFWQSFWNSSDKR

[4] = biological target: T3, Alb3-Cub (Arabidopsis thaliana) (UniProt Q8LBP4); assay: two-hybrid; split-ubiquitin yeast two-hybrid; baits with Cub-LexA-VP16, preys with NubG; yeast NMY32, growth on SD-leu-trp-his-ade for 2-4 days at 28 °C
T3 sequence: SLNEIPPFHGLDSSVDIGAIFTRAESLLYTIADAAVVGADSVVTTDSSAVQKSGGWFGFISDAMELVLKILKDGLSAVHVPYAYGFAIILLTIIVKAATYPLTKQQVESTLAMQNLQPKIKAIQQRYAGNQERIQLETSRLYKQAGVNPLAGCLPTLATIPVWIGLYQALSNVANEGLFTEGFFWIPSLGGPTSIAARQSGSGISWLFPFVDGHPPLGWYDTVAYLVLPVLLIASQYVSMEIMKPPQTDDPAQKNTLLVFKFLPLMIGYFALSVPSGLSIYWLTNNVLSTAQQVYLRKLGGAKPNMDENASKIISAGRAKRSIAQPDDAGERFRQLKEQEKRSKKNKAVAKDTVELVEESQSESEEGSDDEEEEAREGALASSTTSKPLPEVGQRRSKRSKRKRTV

SecY1-Cub = biological target: T4, SecY1-Cub (UniProt Q38885); assay: as above
T4 sequence: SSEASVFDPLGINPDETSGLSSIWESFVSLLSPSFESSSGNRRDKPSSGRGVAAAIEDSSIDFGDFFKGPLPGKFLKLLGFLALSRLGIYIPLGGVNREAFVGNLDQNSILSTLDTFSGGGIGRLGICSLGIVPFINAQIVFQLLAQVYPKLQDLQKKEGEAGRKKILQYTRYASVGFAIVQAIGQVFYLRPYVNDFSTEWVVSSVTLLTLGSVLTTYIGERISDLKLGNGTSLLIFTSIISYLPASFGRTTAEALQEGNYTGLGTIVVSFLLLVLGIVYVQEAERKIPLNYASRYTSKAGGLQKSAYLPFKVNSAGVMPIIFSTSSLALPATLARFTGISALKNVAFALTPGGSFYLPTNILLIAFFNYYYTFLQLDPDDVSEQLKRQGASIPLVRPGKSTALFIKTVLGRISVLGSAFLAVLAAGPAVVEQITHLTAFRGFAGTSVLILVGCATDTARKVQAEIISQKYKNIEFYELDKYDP

[5] = biological target: FPB1 (Facilitator of PsbB biogenesis1) (Arabidopsis thaliana (endogenous in thylakoids)); assay: co-IP; wild-type thylakoids solubilised with 1% dodecyl-β-D-maltoside in co-IP buffer (50 mM Tris-HCl pH 8.0, 100 mM NaCl, 1 mM EDTA, 0.1% Igepal CA-630), incubated overnight at 4 °C with FPB1, PAM68 or YCF4 antibody or preimmune serum coupled to CNBr-activated agarose; immunoblot
[6] = biological target: FPB1 (Facilitator of PsbB biogenesis1) (Arabidopsis thaliana (endogenous in thylakoids)); assay: cross-linking + co-IP; thylakoids crosslinked with 1.5 mM DSP for 2 h on ice, solubilised in RIPA buffer (1% Triton X-100, 1% sodium deoxycholate, 0.1% SDS), immunoprecipitated with antibodies coupled to CNBr-activated agarose; cross-links opened with β-mercaptoethanol; immunoblot
[7] = biological target: FPB1-YFP^N (Arabidopsis thaliana); assay: split reporter; BiFC with YFP^N and YFP^C fusions cotransformed into Arabidopsis protoplasts; confocal microscopy

**Q.** Which results are given for FPB1 (Facilitator of PsbB biogenesis1)?
**A.** binding [1]: binds weakly; binding [2]: binds

**Q.** How did the binding [3] turn out when FPB1-YFP^C (Arabidopsis thaliana) was run?
**A.** Its binding is “binds”.

**Q.** With NubG-FPB1 (Arabidopsis thaliana) as the molecule, how does the binding [4] read?
**A.** The binding was “binds”.

**Q.** And the binding (SecY1-Cub)?
**A.** Its binding is “binds”.

B1: PAM68 (Photosynthesis Affected Mutant68) (protein, UniProt O49668 36-214)
chain: DKTKSQVPKSITCINRLEISRIAPLHATMNSPKGFGPPPKKTKKSKKPKPGNQSDEDDDDEDEDDDDEEDERERGVIPEIVTNRMISRMGFTVGLPLFIGLLFFPFFYYLKVGLKVDVPTWVPFIVSFVFFGTALAGVSYGIVSSSWDPLREGSLLGWNEAKKNWPVFWQSFWNSSDKR
**Q.** With B1 as the molecule, how does the binding [5] read?
**A.** The binding was “binds weakly”.

**Q.** What about the binding [6] of the same molecule?
**A.** Its binding is “binds”.

B2: Alb3 (protein, UniProt Q8LBP4 57-462)
chain: SLNEIPPFHGLDSSVDIGAIFTRAESLLYTIADAAVVGADSVVTTDSSAVQKSGGWFGFISDAMELVLKILKDGLSAVHVPYAYGFAIILLTIIVKAATYPLTKQQVESTLAMQNLQPKIKAIQQRYAGNQERIQLETSRLYKQAGVNPLAGCLPTLATIPVWIGLYQALSNVANEGLFTEGFFWIPSLGGPTSIAARQSGSGISWLFPFVDGHPPLGWYDTVAYLVLPVLLIASQYVSMEIMKPPQTDDPAQKNTLLVFKFLPLMIGYFALSVPSGLSIYWLTNNVLSTAQQVYLRKLGGAKPNMDENASKIISAGRAKRSIAQPDDAGERFRQLKEQEKRSKKNKAVAKDTVELVEESQSESEEGSDDEEEEAREGALASSTTSKPLPEVGQRRSKRSKRKRTV
**Q.** Which results are given for B2?
**A.** binding [5]: binds; binding [6]: binds

B3: PAM68-YFP^C (protein, UniProt O49668 36-214)
chain: DKTKSQVPKSITCINRLEISRIAPLHATMNSPKGFGPPPKKTKKSKKPKPGNQSDEDDDDEDEDDDDEEDERERGVIPEIVTNRMISRMGFTVGLPLFIGLLFFPFFYYLKVGLKVDVPTWVPFIVSFVFFGTALAGVSYGIVSSSWDPLREGSLLGWNEAKKNWPVFWQSFWNSSDKR
**Q.** B3 was tested. Which binding [7] did it give?
**A.** Its binding is “binds”.

B4: Alb3-YFP^C (protein, UniProt Q8LBP4 57-462)
chain: SLNEIPPFHGLDSSVDIGAIFTRAESLLYTIADAAVVGADSVVTTDSSAVQKSGGWFGFISDAMELVLKILKDGLSAVHVPYAYGFAIILLTIIVKAATYPLTKQQVESTLAMQNLQPKIKAIQQRYAGNQERIQLETSRLYKQAGVNPLAGCLPTLATIPVWIGLYQALSNVANEGLFTEGFFWIPSLGGPTSIAARQSGSGISWLFPFVDGHPPLGWYDTVAYLVLPVLLIASQYVSMEIMKPPQTDDPAQKNTLLVFKFLPLMIGYFALSVPSGLSIYWLTNNVLSTAQQVYLRKLGGAKPNMDENASKIISAGRAKRSIAQPDDAGERFRQLKEQEKRSKKNKAVAKDTVELVEESQSESEEGSDDEEEEAREGALASSTTSKPLPEVGQRRSKRSKRKRTV
**Q.** B4 was tested. Which binding [7] did it give?
**A.** Its binding is “binds”.

B5: LPA1-YFP^C (protein, UniProt Q9SRY4 93-453)
chain: DALVQFETALSLAPNPIESQAAYYNKACCHAYRGEGKKAVDCLRIALRDYNLKFATILNDPDLASFRALPEFKELQEEARLGGEDIGDNFRRDLKLISEVRAPFRGVRKFFYFAFAAAAGISMFFTVPRLVQAIRGGDGAPNLLETTGNAAINIGGIVVMVSLFLWENKKEEEQMVQITRDETLSRLPLRLSTNRVVELVQLRDTVRPVILAGKKETVTLAMQKADRFRTELLRRGVLLVPVVWGERKTPEIEKKGFGASSKAATSLPSIGEDFDTRAQSVVAQSKLKGEIRFKAETVSPGEWERWIRDQQISEGVNPGDDVYIILRLDGRVRRSGRGMPDWAEISKELPPMDDVLSKLER
**Q.** With B5 as the molecule, how does the binding [7] read?
**A.** Its binding is “binds”.

B6: LPA2-YFP^C (protein, UniProt F4KDA6 47-185)
chain: SKNSSSSGVGFGSPASSSSPAKKLSAATSGNKKGKGKREVNRRAPVEKPVFMSEEGAAKAEEQRQNENAFLLTWLGLGIVILIEGIILAASGFLPEELDKLFVKYVYPVFTPSVVLFVAGTTAYGVLKYIQNEKMKGQE
**Q.** For B6, which binding [7] is on record?
**A.** Its binding is “binds”.

B7: FtsY-YFP^C (protein, UniProt O80842 41-366)
chain: CSAGPSGFFTRLGRLIKEKAKSDVEKVFSGFSKTRENLAVIDELLLFWNLAETDRVLDELEEALLVSDFGPKITVRIVERLREDIMSGKLKSGSEIKDALKESVLEMLAKKNSKTELQLGFRKPAVIMIVGVNGGGKTTSLGKLAHRLKNEGTKVLMAAGDTFRAAASDQLEIWAERTGCEIVVAEGDKAKAATVLSKAVKRGKEEGYDVVLCDTSGRLHTNYSLMEELIACKKAVGKIVSGAPNEILLVLDGNTGLNMLPQAREFNEVVGITGLILTKLDGSARGGCVVSVVEELGIPVKFIGVGEAVEDLQPFDPEAFVNAIFS
**Q.** With B7 as the molecule, how does the binding [7] read?
**A.** Its binding is “binds”.

B8: cpSRP54-YFP^C (protein, UniProt P37107 76-564)
chain: EMFGQLTGGLEAAWSKLKGEEVLTKDNIAEPMRDIRRALLEADVSLPVVRRFVQSVSDQAVGMGVIRGVKPDQQLVKIVHDELVKLMGGEVSELQFAKSGPTVILLAGLQGVGKTTVCAKLACYLKKQGKSCMLIAGDVYRPAAIDQLVILGEQVGVPVYTAGTDVKPADIAKQGLKEAKKNNVDVVIMDTAGRLQIDKGMMDELKDVKKFLNPTEVLLVVDAMTGQEAAALVTTFNVEIGITGAILTKLDGDSRGGAALSVKEVSGKPIKLVGRGERMEDLEPFYPDRMAGRILGMGDVLSFVEKATEVMRQEDAEDLQKKIMSAKFDFNDFLKQTRAVAKMGSMTRVLGMIPGMGKVSPAQIREAEKNLLVMEAMIEVMTPEERERPELLAESPERRKRIAKDSGKTEQQVSALVAQIFQMRVKMKNLMGVMEGGSIPALSGLEDALKAEQKAPPGTARRKRKADSRKKFVESASSKPGPRGFGSGN
**Q.** For B8, which binding [7] is on record?
**A.** Its binding is “binds”.

B9: RbcS-TP-YFP^C-SecY1 (protein, UniProt Q38885 68-551)
chain: SSEASVFDPLGINPDETSGLSSIWESFVSLLSPSFESSSGNRRDKPSSGRGVAAAIEDSSIDFGDFFKGPLPGKFLKLLGFLALSRLGIYIPLGGVNREAFVGNLDQNSILSTLDTFSGGGIGRLGICSLGIVPFINAQIVFQLLAQVYPKLQDLQKKEGEAGRKKILQYTRYASVGFAIVQAIGQVFYLRPYVNDFSTEWVVSSVTLLTLGSVLTTYIGERISDLKLGNGTSLLIFTSIISYLPASFGRTTAEALQEGNYTGLGTIVVSFLLLVLGIVYVQEAERKIPLNYASRYTSKAGGLQKSAYLPFKVNSAGVMPIIFSTSSLALPATLARFTGISALKNVAFALTPGGSFYLPTNILLIAFFNYYYTFLQLDPDDVSEQLKRQGASIPLVRPGKSTALFIKTVLGRISVLGSAFLAVLAAGPAVVEQITHLTAFRGFAGTSVLILVGCATDTARKVQAEIISQKYKNIEFYELDKYDP
**Q.** How did the binding [7] turn out when B9 was run?
**A.** The binding was “no binding”.
